# Source: PubChem BioAssay AID2551 (National Center for Advancing Translational Sciences (NCATS), 2010)
# Protein sequences, listed by entry. Tags and fused reporters are not part of them. Lines headed by an entry give the natural chain unless they say otherwise; changes in a name come on top.
# UniProt P51450: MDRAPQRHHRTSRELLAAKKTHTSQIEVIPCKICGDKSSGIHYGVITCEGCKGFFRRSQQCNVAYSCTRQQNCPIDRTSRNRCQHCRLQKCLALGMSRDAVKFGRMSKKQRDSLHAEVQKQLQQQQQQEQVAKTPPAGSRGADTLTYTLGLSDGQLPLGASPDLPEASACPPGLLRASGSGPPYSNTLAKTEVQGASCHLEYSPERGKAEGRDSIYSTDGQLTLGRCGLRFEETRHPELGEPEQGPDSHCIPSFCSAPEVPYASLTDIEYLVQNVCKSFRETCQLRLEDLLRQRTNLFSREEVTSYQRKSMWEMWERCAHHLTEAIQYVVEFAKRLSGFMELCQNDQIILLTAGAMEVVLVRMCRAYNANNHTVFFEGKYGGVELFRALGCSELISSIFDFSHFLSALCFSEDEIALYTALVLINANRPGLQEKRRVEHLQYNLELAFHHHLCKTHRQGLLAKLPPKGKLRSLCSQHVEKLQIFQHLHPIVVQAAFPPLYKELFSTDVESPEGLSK
# Out of some 310,000 compounds screened, about 17,000 (5.5%) were called active. Inconclusive means that the source gave no clear call. Such entries were picked first, then a sample of the others. Calls come from the whole dose curve; as a rule, active = well fitted inhibition curve with a large enough effect; inconclusive = small, poorly fitted or top-dose-only effect, or effect the other way; inactive = no such curve, though single readings can be large or run the other way. Where the call is inconclusive, the potency comes from a doubtful curve fit.
# Biological target: Nuclear receptor ROR-gamma (Mus musculus) (UniProt P51450)
# Assay: qHTS for inhibitors of ROR gamma transcriptional activity; note: nearly all actives have a fitted effect of over 60% in size
# Conditions: Drosophila S2 Gal4-RORgamma UAS-luciferase reporter, 20 h; activity change, negative = inhibition: at 53.6 µM (top of the series)
# Outline: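 In this cell-based reporter format, copper sulfate (700 uM final) drives Gal4–ROR gamma fusion expression from a metallothionein promoter in Drosophila Schneider cells; compounds preincubated 1 hr, reporter read after 20 hr at ambient temperature.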
# % is set by controls: 0 for no effect and ±100 for the full control effect; potency is the fitted concentration of half-maximal effect.
Structure (SMILES),Potency,"activity change, negative = inhibition"
Cc1ccc(C)c(NC(=O)CSc2ccc(-c3cccs3)nn2)c1,"inconclusive: 14.1 µM [inhibitor, single point]",
Cc1cnn(-c2nc(-c3cccs3)cc(C(F)(F)F)n2)c1,"inconclusive: 35.5 µM [inhibitor, single point]",
O=C(CCCn1c(=O)c2ccccc2n(CC(=O)N2CCN(c3ccccc3)CC2)c1=O)NCc1ccco1,,inactive: 26.8%
O=C(CCCCn1c(=O)c2ccccc2n(CC(=O)Nc2cccc(F)c2)c1=O)NCc1ccco1,"inconclusive: 8.91 µM [activator, partial curve]",
c1ccc(Cn2c(CN3CCCC3)nc3ccccc32)cc1,active: 14.1 µM,
Cc1ccc(NC(=S)N(CCN2CCCCC2)Cc2ccco2)cc1,"inconclusive: 22.4 µM [inhibitor, single point]",
CCC(C)(C)n1nnnc1C(c1ccc(O)c(OC)c1)N1CCN(c2nc3ccccc3s2)CC1 (stereo not drawn),"inconclusive: 35.5 µM [inhibitor, single point]",
CNC(=O)CSc1nnc(-c2ccco2)n1-c1cccc(C)c1,"inconclusive: 0.282 µM [activator, partial curve, poor fit]",
c1ccc(COc2ccc(Nc3ncnc4nc[nH]c34)cc2)cc1,"inconclusive: 10 µM [activator, partial curve, poor fit]",
Cc1ccccc1NC(=O)c1ccc(-n2cncn2)nc1,active: 17.8 µM,
CCc1ccc2[nH]c(=O)c(CN(CC3CCCO3)C(=S)NCc3ccco3)cc2c1 (stereo not drawn),"inconclusive: 35.5 µM [inhibitor, single point]",
CN(C)CCNc1ncnc2oc(-c3ccccc3)c(-c3ccccc3)c12,"inconclusive: 15.8 µM [inhibitor, single point]",
C=CCOc1ccc(C2NC(=S)NC(C)=C2C(=O)c2ccccc2)cc1OC (stereo not drawn),"inconclusive: 22.4 µM [inhibitor, single point]",
CCn1c(COc2ccc(Cl)cc2)nnc1SCC(=O)Nc1ccc2c(c1)OCCO2,"inconclusive: 15.8 µM [inhibitor, single point]",
CCC(CC)C(=O)Nc1nc(-c2ccc3c(c2)CCN3C(=O)C2CC2)c(C)s1,,inactive: -21.7%
CCC1CCc2c(sc(NC(=O)C3CC=CCC3C(=O)O)c2C#N)C1 (stereo not drawn),,inactive: 16.9%
Cc1cccc(C)c1-n1nnnc1C1(Nc2ccccc2)CCCCC1,,inactive: -22.4%
CSc1nnc(C)c(/C=C/NOCc2cccc(F)c2)n1,"inconclusive: 15.8 µM [inhibitor, single point]",
Cc1ccc2c(c1)c1c(n2CC(O)Cn2ccnc2C)C(=O)CCC1 (stereo not drawn),"inconclusive: 0.708 µM [activator, single point]",
CC(C)CCn1c(O)c(N=NC(=O)Cn2ccc(C(F)(F)F)n2)c2ccccc21,,inactive: -5.49%
CC(=O)N1CC(C)Oc2ccc(S(=O)(=O)NC(CC(=O)O)c3ccc(C)cc3C)cc21 (stereo not drawn),,inactive: -1.58%
Cc1oc(-c2ccccc2F)nc1CS(=O)(=O)CC(=O)NCc1ccccc1Cl,,inactive: 4.35%
O=C(CC1=NCCNC(c2ccccc2)C1)c1ccccc1O (stereo not drawn),,inactive: -29.3%
Cc1nc2scc(-c3ccc(C(C)C)cc3)c2c(=O)n1N,"inconclusive: 22.4 µM [activator, single point]",
CCC(CC)C(=O)Nc1c(C(=O)N2CCN(c3ccccc3)CC2)oc2ccccc12,,inactive: 20.2%

# A draw from above in order of heavy-atom count, smallest number first:
Structure (SMILES),Potency,"activity change, negative = inhibition"
CSc1nnc(C)c(/C=C/NOCc2cccc(F)c2)n1,"inconclusive: 15.8 µM [inhibitor, single point]",
O=C(CCCCn1c(=O)c2ccccc2n(CC(=O)Nc2cccc(F)c2)c1=O)NCc1ccco1,"inconclusive: 8.91 µM [activator, partial curve]",
O=C(CCCn1c(=O)c2ccccc2n(CC(=O)N2CCN(c3ccccc3)CC2)c1=O)NCc1ccco1,,inactive: 26.8%

# Whole records from above:
# O=C(CCCn1c(=O)c2ccccc2n(CC(=O)N2CCN(c3ccccc3)CC2)c1=O)NCc1ccco1 in the list: activity change, negative = inhibition: inactive: 26.8%
# Cc1oc(-c2ccccc2F)nc1CS(=O)(=O)CC(=O)NCc1ccccc1Cl in the list: activity change, negative = inhibition: inactive: 4.35%

# (more compounds)

Structure (SMILES),Potency,"activity change, negative = inhibition"
Cc1ccc(C)c(NC(=S)NNC(=O)c2csc(C(C)C)c2)c1,"inconclusive: 1.41 µM [inhibitor, full curve, poor fit]",
Nn1c(-c2cccc(Br)c2)n[nH]c1=S,,inactive: -20.4%
CCN(CC)C(=O)CSc1nnc(CNc2ccc(F)cc2)n1-c1ccccc1,"inconclusive: 7.08 µM [activator, partial curve, poor fit]",
CCC(C)(C)n1nnnc1C(c1cc2ccc(OC)cc2[nH]c1=O)N1CCc2ccccc2C1 (stereo not drawn),"inconclusive: 14.1 µM [inhibitor, partial curve]",
COc1ccc(NC(=S)NCC(c2ccco2)N2CCCC2)cc1 (stereo not drawn),"inconclusive: 22.4 µM [inhibitor, single point]",
COC(=O)CC(=O)CSc1nc2c(cc1C#N)CCCCC2,"inconclusive: 5.62 µM [inhibitor, single point]",
Cc1ccc(O)c(-c2cc(-c3ccccc3[N+](=O)[O-])[nH]n2)c1,"inconclusive: 35.5 µM [inhibitor, single point]",
COc1ccc(Br)cc1S(=O)(=O)NCc1ccccn1,"inconclusive: 11.2 µM [inhibitor, single point]",
O=C(Nc1ccc(F)cc1)c1ccccc1NS(=O)(=O)N1CCCC1,"inconclusive: 31.6 µM [activator, single point]",
Cc1cc(O)c(/C=N/Nc2ccccc2)c(=O)o1,"inconclusive: 31.6 µM [inhibitor, single point]",
COC(=O)c1cc(S(=O)(=O)NCCc2ccc(C)cc2)c[nH]1,"inconclusive: 20 µM [activator, partial curve]",
COc1ccc(C(=O)NCC2(c3ccc(OC)c(OC)c3)CCCC2)c(OC)c1,,inactive: 25.6%
CCn1cc(C2=NC(C)(C)CO2)c2ccccc21,active: 20 µM,
O=C(NC(=S)Nc1ccccc1N1CCOCC1)c1cccc([N+](=O)[O-])c1,active: 1.58 µM,
COc1cccc(-c2cc(C(=O)N3CCN(c4ccccc4OC)CC3)no2)c1,"inconclusive: 35.5 µM [activator, single point]",
Cc1ccc(OCCNC(=O)c2ccccc2O)cc1,"inconclusive: 15.8 µM [activator, partial curve]",
O=C(NC(=S)N1CCCCC1)c1csc([N+](=O)[O-])c1,active: 0.355 µM,
Cc1ccc(/C=N/Nc2nc(N3CCCCC3)nc(N3CCCCC3)n2)o1,active: 8.91 µM,
Cc1cccc(C)c1OCC(=O)OC/C(O)=C(\C#N)c1nc2ccccc2[nH]1,active: 10 µM,
Cc1cccc(CSc2nc(N)c(C#N)c(-c3cccs3)c2C#N)c1,"inconclusive: 4.47 µM [activator, full curve, poor fit]",
Cn1cccc1C(=O)NCCc1ccc(Cl)cc1,"inconclusive: 2.24 µM [activator, single point]",
Cc1c(C)c2ccc(OCC(=O)Nc3nccs3)cc2oc1=O,"inconclusive: 11.2 µM [inhibitor, single point]",
Cc1ccc(-c2csc3ncnc(N4CCN(Cc5ccccc5)CC4)c23)cc1,"inconclusive: 12.6 µM [activator, single point]",
CCOC(=O)c1c(CSc2ccccc2)n(C)c2cc(Br)c(OC)c(O)c12,"inconclusive: 3.55 µM [inhibitor, partial curve]",
COc1ccc(C(=O)NCCCOC(=O)c2ccc(OC)cc2)cc1,,inactive: 26.6%

Structure (SMILES),Potency,"activity change, negative = inhibition"
O=C(c1ccc(Cl)cc1)c1coc2ccc(O)cc12,,inactive: 5.87%
S=C1CCC(c2ccc(Br)cc2)=NN1c1ccccc1,"inconclusive: 10 µM [inhibitor, partial curve]",
Cc1ccc(S(=O)(=O)NCC(=O)OCC(=O)NCc2ccc(F)cc2)cc1,,inactive: -7.74%
CN(c1ccc(C(=O)NCCc2ccccc2)cc1)S(C)(=O)=O,"inconclusive: 17.8 µM [inhibitor, single point]",
Cc1cc(C(=O)N/N=C/C=C/c2ccccc2)n[nH]1,,inactive: -24.5%
O=S(=O)(c1ccccc1)c1cnn(-c2ccccc2)c1-c1ccc(Cl)cc1,,inactive: -0.529%
CCOC(=O)c1cnc(-c2ccccc2)nc1-c1ccccc1,,inactive: -4.64%
CC(=O)CCc1oc2ccc(C)cc2c1-c1ccccc1,,inactive: 35.9%
Cc1cccc(N2CCN(C(=O)COc3ccc4c(c3)CCC4)CC2)c1C,"inconclusive: 12.6 µM [activator, partial curve]",
CCn1c(=O)cc(SCC(=O)Nc2cccc(SC)c2)c2ccccc21,"inconclusive: 22.4 µM [inhibitor, single point]",
O=C(Nc1sc2c(c1C(=O)O)CCCCC2)c1ccccc1,"inconclusive: 35.5 µM [inhibitor, single point]",
C/C(=N\NC(=S)NC(C)C)c1ccc(Cl)c([N+](=O)[O-])c1,"inconclusive: 4.47 µM [inhibitor, single point]",
Cc1ccc(S(=O)(=O)N2CCCCC2)cc1NC(=O)COC(=O)Cc1cccc(C(F)(F)F)c1,"inconclusive: 20 µM [activator, single point]",
Cc1ccc(CNC(=O)c2ccc(N3CCC4(CC3)CC(c3ccccc3)=NO4)c(NC(=O)c3ccco3)c2)cc1,,inactive: 2.21%
Cc1ccc(C(=O)NCCc2nnc3ccc(SCC(=O)Nc4ccccc4F)nn23)cc1,,inactive: 19.9%
CNC(=O)COC(=O)/C=C/c1c(C)nn(-c2ccccc2)c1C,"inconclusive: 35.5 µM [activator, single point]",
Cc1ccccc1NC(=O)c1cccc(S(=O)(=O)N2CCCCC2)c1,,inactive: 35.8%
Cc1ccc(NC2CCCN(C(=O)c3cn4cccc(C)c4n3)C2)cc1C (stereo not drawn),,inactive: -13.1%
S=C(c1ccc2c(c1)OCO2)N1CCCCC1,"inconclusive: 12.6 µM [inhibitor, single point]",
Cc1ccc(S(=O)(=O)c2c(C)cc(C)nc2Oc2cccc(C)c2C)cc1,"inconclusive: 35.5 µM [activator, single point]",
CCOc1ccc(OCc2cccc(C(=O)N3CCOCC3)c2)cc1,"inconclusive: 11.2 µM [inhibitor, single point]",
O=C1C2CC=CCC2C(=O)N1c1ccc(NCCc2ccccc2)c([N+](=O)[O-])c1 (stereo not drawn),"inconclusive: 12.6 µM [activator, partial curve]",
CCc1ccc(NC(=O)c2cc(CC(C)C)on2)cc1,"inconclusive: 12.6 µM [activator, single point]",
